Construct, isoform or probe ends are uncertain for at least one entry. At least one result comes from cells or an extract, where the contact may be indirect. Negatives hold for the conditions tested. Weaker means in comparison with the reference protein, sequence or condition of that experiment.

Amino acid sequences for entries named in this document (tags omitted).
UniProt Q9VDY1, whole entry: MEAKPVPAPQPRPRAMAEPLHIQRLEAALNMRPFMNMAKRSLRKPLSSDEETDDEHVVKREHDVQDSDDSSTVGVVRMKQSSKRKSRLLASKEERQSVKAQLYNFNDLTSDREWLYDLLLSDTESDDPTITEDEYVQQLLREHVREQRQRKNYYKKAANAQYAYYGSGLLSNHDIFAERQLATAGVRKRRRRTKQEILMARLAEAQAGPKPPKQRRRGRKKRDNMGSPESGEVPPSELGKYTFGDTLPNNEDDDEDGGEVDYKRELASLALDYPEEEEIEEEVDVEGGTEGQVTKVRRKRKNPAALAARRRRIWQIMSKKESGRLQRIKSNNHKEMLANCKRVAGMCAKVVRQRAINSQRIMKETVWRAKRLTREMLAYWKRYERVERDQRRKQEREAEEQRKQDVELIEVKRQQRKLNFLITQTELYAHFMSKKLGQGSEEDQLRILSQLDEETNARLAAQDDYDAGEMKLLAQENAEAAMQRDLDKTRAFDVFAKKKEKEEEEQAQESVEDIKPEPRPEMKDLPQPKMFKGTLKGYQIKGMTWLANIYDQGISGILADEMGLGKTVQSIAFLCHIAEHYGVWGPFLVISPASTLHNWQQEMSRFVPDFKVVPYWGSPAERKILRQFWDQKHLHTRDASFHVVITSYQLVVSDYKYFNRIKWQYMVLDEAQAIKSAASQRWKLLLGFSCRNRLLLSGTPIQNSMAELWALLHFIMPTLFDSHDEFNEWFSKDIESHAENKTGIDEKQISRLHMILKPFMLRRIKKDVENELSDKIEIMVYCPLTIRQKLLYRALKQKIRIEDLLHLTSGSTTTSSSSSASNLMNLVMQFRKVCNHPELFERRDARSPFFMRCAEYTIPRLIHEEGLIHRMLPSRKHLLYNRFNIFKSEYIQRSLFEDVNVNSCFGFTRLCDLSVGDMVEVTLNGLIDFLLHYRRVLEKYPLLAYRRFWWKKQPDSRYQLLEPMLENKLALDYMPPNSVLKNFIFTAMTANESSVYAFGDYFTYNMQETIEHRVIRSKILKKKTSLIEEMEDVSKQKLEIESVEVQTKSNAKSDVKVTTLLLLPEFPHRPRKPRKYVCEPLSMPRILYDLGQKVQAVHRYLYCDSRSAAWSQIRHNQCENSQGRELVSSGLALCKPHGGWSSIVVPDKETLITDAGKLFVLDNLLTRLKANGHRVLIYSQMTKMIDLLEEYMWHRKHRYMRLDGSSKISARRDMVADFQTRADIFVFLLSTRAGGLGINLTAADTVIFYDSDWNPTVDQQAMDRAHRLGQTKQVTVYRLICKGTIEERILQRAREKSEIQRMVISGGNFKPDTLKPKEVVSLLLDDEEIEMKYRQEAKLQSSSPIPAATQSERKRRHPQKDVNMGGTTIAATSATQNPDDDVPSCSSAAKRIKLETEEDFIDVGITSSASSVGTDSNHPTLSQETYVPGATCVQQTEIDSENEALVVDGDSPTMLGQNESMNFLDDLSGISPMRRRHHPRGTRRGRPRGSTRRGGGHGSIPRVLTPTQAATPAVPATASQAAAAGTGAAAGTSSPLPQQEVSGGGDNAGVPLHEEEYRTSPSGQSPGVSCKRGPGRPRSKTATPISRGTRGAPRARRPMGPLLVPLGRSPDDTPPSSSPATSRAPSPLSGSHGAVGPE

This series addresses native dIno80 in nuclear extract (UniProt Q9VDY1). Description: competition with a labelled probe. The settings on record: protein in an extract.

For the sequence “CCCCGTCAGCCCCCCGTCAGCCCCCCGTCAGCC (double strand) [Hs.con (3 copies of Ino80 motif, 33-mer)]”, for the setting “unlabeled Hs.con vs Cy3-V1, EMSA”, the binding result is “binds more weakly”.
Turning to “CCCCCGTGCTACCCCCGTGCTACCCCCGTGCTA (double strand) [Rb (randomized Hs.con, repeated thrice)]”, for the setting “vs Cy3-Hs.con, EMSA”, the binding result is “no binding”.

Values taken from paper doi:10.1101/519959.
